Measured values reported in patent EP1914307A2.

Biological target: TY145 subtilase (Bacillus sp. TY145)
Assay: X-ray crystal structure of the complex

B1: C12 inhibitor (protein, UniProt P01053 21-84, looked up)
chain: LKTEWPELVGKSVEEAKKVILQDKPEAQIIVLPVGTIVTMEYRIDRVRLFVDKLDNIAQVPRVG
binding: binds

These are yes or no findings as the source states them, for the method shown. Binding can be weak; no strength is given.
